The values that follow come from article PMC12172489.

Amino acid sequences for entries named in this document (tags omitted).
UniProt P03427: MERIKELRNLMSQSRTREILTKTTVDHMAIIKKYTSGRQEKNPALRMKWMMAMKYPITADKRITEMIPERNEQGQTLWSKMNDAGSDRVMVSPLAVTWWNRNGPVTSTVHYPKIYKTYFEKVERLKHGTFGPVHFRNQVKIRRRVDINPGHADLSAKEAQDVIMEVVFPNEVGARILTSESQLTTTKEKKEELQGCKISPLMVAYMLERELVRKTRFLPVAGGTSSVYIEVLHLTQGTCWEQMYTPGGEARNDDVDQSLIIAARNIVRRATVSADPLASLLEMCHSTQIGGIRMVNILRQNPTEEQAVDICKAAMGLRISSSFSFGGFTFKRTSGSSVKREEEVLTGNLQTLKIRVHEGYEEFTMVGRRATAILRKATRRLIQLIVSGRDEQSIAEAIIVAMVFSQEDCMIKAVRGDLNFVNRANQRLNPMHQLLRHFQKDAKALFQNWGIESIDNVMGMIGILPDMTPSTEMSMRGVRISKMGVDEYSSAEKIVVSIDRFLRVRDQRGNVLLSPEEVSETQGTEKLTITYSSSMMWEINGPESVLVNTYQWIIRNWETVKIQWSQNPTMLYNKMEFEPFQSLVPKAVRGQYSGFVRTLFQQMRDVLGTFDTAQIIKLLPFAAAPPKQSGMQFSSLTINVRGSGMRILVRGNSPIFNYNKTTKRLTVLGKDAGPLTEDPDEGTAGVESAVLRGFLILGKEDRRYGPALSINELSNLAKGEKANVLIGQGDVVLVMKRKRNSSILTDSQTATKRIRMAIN

The target of the experiment is PB2-TAP fusion protein of influenza A/WSN/33 (WSN, H1N1) virus (influenza A/WSN/33 (WSN, H1N1) virus) (UniProt P03427). Briefly: affinity purification with mass spectrometry.

Results are given in words; binding and its absence hold for the method and conditions named. Binding seen in cells or lysates may run through a third protein. These calls come from enrichment with a bait or labelling near it, and not all partners need be listed.

B1: Heterogeneous nuclear ribonucleoprotein M (hnRNPM) (protein, UniProt P52272 1-730)
chain: MAAGVEAAAEVAATEIKMEEESGAPGVPSGNGAPGPKGEGERPAQNEKRKEKNIKRGGNRFEPYANPTKRYRAFITNIPFDVKWQSLKDLVKEKVGEVTYVELLMDAEGKSRGCAVVEFKMEESMKKAAEVLNKHSLSGRPLKVKEDPDGEHARRAMQKVMATTGGMGMGPGGPGMITIPPSILNNPNIPNEIIHALQAGRLGSTVFVANLDYKVGWKKLKEVFSMAGVVVRADILEDKDGKSRGIGTVTFEQSIEAVQAISMFNGQLLFDRPMHVKMDERALPKGDFFPPERPQQLPHGLGGIGMGLGPGGQPIDANHLNKGIGMGNIGPAGMGMEGIGFGINKMGGMEGPFGGGMENMGRFGSGMNMGRINEILSNALKRGEIIAKQGGGGGGGSVPGIERMGPGIDRLGGAGMERMGAGLGHGMDRVGSEIERMGLVMDRMGSVERMGSGIERMGPLGLDHMASSIERMGQTMERIGSGVERMGAGMGFGLERMAAPIDRVGQTIERMGSGVERMGPAIERMGLSMERMVPAGMGAGLERMGPVMDRMATGLERMGANNLERMGLERMGANSLERMGLERMGANSLERMGPAMGPALGAGIERMGLAMGGGGGASFDRAIEMERGNFGGSFAGSFGGAGGHAPGVARKACQIFVRNLPFDFTWKMLKDKFNECGHVLYADIKMENGKSKGCGVVKFESPEVAERACRMMNGMKLSGREIDVRIDRNA
Take B1: the binding result is listed as “binds”.

B2: DARS (protein, UniProt P14868 1-501)
chain: MPSASASRKSQEKPREIMDAAEDYAKERYGISSMIQSQEKPDRVLVRVRDLTIQKADEVVWVRARVHTSRAKGKQCFLVLRQQQFNVQALVAVGDHASKQMVKFAANINKESIVDVEGVVRKVNQKIGSCTQQDVELHVQKIYVISLAEPRLPLQLDDAVRPEAEGEEEGRATVNQDTRLDNRVIDLRTSTSQAVFRLQSGICHLFRETLINKGFVEIQTPKIISAASEGGANVFTVSYFKNNAYLAQSPQLYKQMCICADFEKVFSIGPVFRAEDSNTHRHLTEFVGLDIEMAFNYHYHEVMEEIADTMVQIFKGLQERFQTEIQTVNKQFPCEPFKFLEPTLRLEYCEALAMLREAGVEMGDEDDLSTPNEKLLGHLVKEKYDTDFYILDKYPLAVRPFYTMPDPRNPKQSNSYDMFMRGEEILSGAQRIHDPQLLTERALHHGIDLEKIKAYIDSFRFGAPPHAGGGIGLERVTMLFLGLHNVRQTSMFPRDPKRLTP
Regarding B2, the binding result is “binds”.
